At least one structure is not confirmed: it was looked up by name or label, or the drawing left a doubt.
Key:
ARC CSPG-ECM = assay: I.C.V. PZ6005 and/or S.C. liraglutide, 28-day treatment: ARC CSPG-ECM (WFA); type: in vivo, C57BL/6j mice; conditions: liraglutide 200 μg/kg/day S.C. 28 days, single treatment
Protocol: All image quantification was performed in Image J (NIH) software (NIH, MA). Raw images underwent background subtraction using a rolling ball algorithm to minimize background and any potential variance in tissue autofluorescence. To quantify area and intensity of the CSPG-ECM within each brain region (ARC, VMH or RSG cortex) images were thresholded and binarized to create a region of interest (ROI) mask of only the CSPG-ECM. For each brain area, CSPG-ECM ROI area (μm^2) and intensity (sum of all pixel intensities within the ROI) was calculated. This process was automated to minimise bias and to account for differences in brain nuclei size across multiple images. Brain nuclei were defined in accordance with the Paxinos and Franklin mouse brain atlas (http://labs.gaidi.ca/mouse-brain-atlas/). The area and intensity of CSPG-ECM within each region was normalised to the respective control.

[1] = test system: ARC insulin receptor signalling (pAKT); assay: I.C.V. PZ6005 and/or S.C. liraglutide: ARC pAKT +ve. cells after insulin; type: in vivo, C57BL/6j mice; conditions: after 28-day treatment; compared with control littermates
Protocol: Mice were injected intraperitoneally with vehicle (PBS) or insulin (3 mU/g, i.p., Actrapid, Nova Nordisk, Denmark) and mice were transcardially perfused (as described above) 15 min with 10% neutral buffered formalin. The brains were post-fixed for 16 h on a rocking platform at RT and then kept for two days in 30% sucrose in PBS to cryoprotect the tissue, before freezing on dry ice. 30 μm sections were cut in the coronal plane throughout the entire rostral-caudal extent of the hypothalamus. Sections were pre-treated for 10 mins in 0.3% glycine, washed in PBS-T and incubated for 10 min in 0.03% SDS. Sections were then blocked in 5% blocking buffer for 1 h at RT and incubated for 48 h with rabbit anti-p-AKT (Ser-473) (1:300; #4060, Cell Signaling Technology, Beverly, MA) in 1% blocking buffer. Sections were then incubated in 5% blocking buffer containing either goat anti-rabbit Alexa Fluor 647 (ab150083, Abcam, Cambridge, UK) or biotinylated goat anti-rabbit (BA-1000, Vector Laboratories, CA, no sodium azide in blocking buffer). […]

diet-induced obese mice [2] = assay: I.C.V. PZ6005 and/or S.C. liraglutide, 28 days: body weight, adiposity, food intake, energy expenditure; type: in vivo, C57BL/6j mice
Protocol: (§1) Metabolic measurements were undertaken in the Melbourne Mouse Metabolic Phenotyping Platform (The University of Melbourne, Australia). Glucose tolerance tests were performed on 6 h fasted conscious mice respectively by injecting D-glucose (2 mg/g of lean body mass and 1 mg/g lean mass for db/db and HFHS+STZ mice) into the peritoneal cavity and measuring glucose in tail blood immediately before and at 15, 30, 45, 60, 90 and 120 min after injection using an Accu-Check glucometer (Roche, Germany). The areas under glucose excursion curves were determined and expressed as mmol/l×min. Fasted (12 h fast) plasma insulin or glucose levels were determined using a Rat/Mouse Insulin ELISA (EZRMI-13K, Merck Millipore, CA) or an Accu-Check glucometer respectively. The HOMA-IR was calculated using the equation [(glucose×insulin)/405]. Adiposity was measured using TD-NMR minispec (Bruker Optics Inc., Billerica, MA).
Mice were acclimated for 24 h and then monitored for 48 h in an environmentally controlled Promethion Metabolic Screening System (Sable Systems International, NV) fitted with indirect open circuit calorimetry, food consumption and activity monitors to measure activity, caloric intake and energy expenditure. Respiratory quotients were calculated as the ratio of CO2 production over O2 consumption respiratory exchange ratio and energy expenditure was calculated using the Weir equation (Kcal h−1=60×(0.003941×VO2+0.001106×VCO2). To account for difference in body mass/composition energy expenditure was analysed and adjusted using ANCOVA using scripts available at the National Mouse Metabolic Phenotyping Centers (MMPC, Nashville, TN, USA) Energy Expenditure Analysis Page (https://www.mmpc.org/shared/regression.aspx).

diet-induced obese mice [3] = assay: I.C.V. PZ6005 and/or S.C. liraglutide: I.P. GTT; type: in vivo, C57BL/6j mice; conditions: day 14; 6 hours fasted; compared with the control treatment
Protocol: as §1

[4] = test system: 12-week HFHS fed obese mice; assay: Example 21: 14-day treatment and off-treatment phase, weight rebound, body composition, metabolic rate, food intake; type: in vivo, C57BL/6J male mice

## CCCCCCCCCCCCCCCC(=O)N[C@@H](CCC(=O)NCCCC[C@H](NC(=O)[C@H](C)NC(=O)[C@H](C)NC(=O)[C@H](CCC(N)=O)NC(=O)CNC(=O)[C@H](CCC(=O)O)NC(=O)[C@H](CC(C)C)NC(=O)[C@H](Cc1ccc(O)cc1)NC(=O)[C@H](CO)NC(=O)[C@H](CO)NC(=O)[C@@H](NC(=O)[C@H](CC(=O)O)NC(=O)[C@H](CO)NC(=O)[C@@H](NC(=O)[C@H](Cc1ccccc1)NC(=O)[C@@H](NC(=O)CNC(=O)[C@H](CCC(=O)O)NC(=O)[C@H](C)NC(=O)[C@@H](N)Cc1cnc[nH]1)[C@@H](C)O)[C@@H](C)O)C(C)C)C(=O)N[C@@H](CCC(=O)O)C(=O)N[C@@H](Cc1ccccc1)C(=O)N[C@H](C(=O)N[C@@H](C)C(=O)N[C@@H](Cc1c[nH]c2ccccc12)C(=O)N[C@@H](CC(C)C)C(=O)N[C@H](C(=O)N[C@@H](CCCNC(=N)N)C(=O)NCC(=O)N[C@@H](CCCNC(=N)N)C(=O)NCC(=O)O)C(C)C)[C@@H](C)CC)C(=O)O [liraglutide, reference compound]
ARC CSPG-ECM
  effect on the ARC CSPG-ECM: no effects
[1]
  ARC insulin receptor signalling (pAKT): enhanced
diet-induced obese mice [2]; 28-day treatment, compared with control littermates
  mass of ingWAT, epiWAT and the liver: lower mass
diet-induced obese mice [2]; Day 8-Day 11 of the treatment, day and night
  energy expenditure and oxygen consumption: unaffected
diet-induced obese mice [2]; day 28, PZ6005 100 μg/animal I.C.V. every other day first 14 days, liraglutide 200 μg/kg/day S.C. 28 days
  mean percentage change in weight: −17.22±1.84%
diet-induced obese mice [3]
  glucose excursion (I.P. GTT): reduced glucose excursion
[4]; 14 days after withdrawing treatments
  oxygen consumption and energy expenditure: reduction
[4]; off-treatment phase
  day of return to baseline body weight: 28.00 ± 3.08 days

— patent publication US20260191933A1, “PHARMACEUTICAL COMBINATIONS AND USES THEREOF” (The University of Melbourne, priority 2022, published 2026)
